Where “and” joins values, the source holds several entries; their conditions need not be identical. Identical values can stand only once. Counter-ions that a name gives are not always drawn. ± gives the standard deviation of the averaged measurements. Some of the results follow. Plates or batches differ in their baseline, so values are only roughly comparable.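 Assay uses culture-activated primary human stellate myofibroblasts; lipid droplet recovery indicates inactivation. Measured: proportion of Hoechst-counted cells over a plate-specific Bodipy cutoff, duplicate wells, DMSO and nortriptyline as per-plate negative and positive controls. A hit scores, control-normalized, above the plate's top-tenth-percentile nortriptyline wells or ranks among its three best wells. Final well concentrations not reported.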
System: primary human hepatic stellate cells (donor 1)
Test: percent Bodipy-positive cells; higher = more lipid droplet accumulation
Details: 48 h
[1] = library stock concentration: 3.33 mM
[2] = library stock concentration: 10 mM
[3] = library stock concentration: 6.3 mM
[4] = library stock concentration: 4.7 mM
[5] = library stock concentration: 400 uM
[6] = library stock concentration: 2 mM
[7] = library stock concentration: 80 uM

SMILES: COc1ccc(C(C)=O)c(O)c1 [Paeonol]
- percent Bodipy-positive cells [1]: 8.99 ± 4.5%
- percent Bodipy-positive cells [2]: 16.5 ± 2.7%

SMILES: c1ccc(N2CCN(CCCOc3ccc4c(c3)OCO4)CC2)cc1 [BP 554 maleate]
- percent Bodipy-positive cells [2]: 10.7 ± 1.4%

SMILES: CS(=O)(=O)O.Cc1ccc2c(c1)c1c3n2CCNC3CCC1 (configuration not stated) [Pirlindole mesylate]
- percent Bodipy-positive cells [2]: 55.61 ± 0.34%

SMILES: CN(C)c1nc(N)c(C(=O)NC(=N)N)nc1Cl [5-(N,N-Dimethyl)amiloride hydrochloride]
- percent Bodipy-positive cells [2]: 50.4 ± 18%

SMILES: N[C@@H](C(=O)O)c1ccc(O)c(C(=O)O)c1 [(R)-3-Carboxy-4-hydroxyphenylglycine]
- percent Bodipy-positive cells [2]: 10.2 ± 3.6%

SMILES: CCn1cc(C(=O)O)c(=O)c2cc(F)c(N3CCNCC3)cc21 [Norfloxacin]
- percent Bodipy-positive cells: 25.2 ± 2.9%
- percent Bodipy-positive cells [3]: 8.16% and 3.6%
- percent Bodipy-positive cells [2]: 9.25 ± 2.8%

SMILES: CCn1cc(C(=O)O)c(=O)c2cc(F)c(N3CCNCC3)cc21
- percent Bodipy-positive cells [2]: 27.4 ± 5.5%

SMILES: N[C@H](C(=O)O)[C@H](Cc1ccccc1)C(=O)O [L-Beta-threo-benzyl-aspartate]
- percent Bodipy-positive cells [2]: 16.9 ± 0.58%

SMILES: CN(C)CCCN1c2ccccc2Sc2ccc(Cl)cc21 [Chlorpromazine]
- percent Bodipy-positive cells [3]: 74.6 ± 4.8%

SMILES: CC(C)C[C@H](NC(=O)CNC(=O)c1cc(Cl)ccc1Cl)B1OC(=O)CC(CC(=O)O)(C(=O)O)O1 (some centres not stated)
- percent Bodipy-positive cells [1]: 33.3 ± 7.6%
- percent Bodipy-positive cells [2]: 65 ± 3.8%

SMILES: Cc1nc2c(OCc3ccccc3)cccn2c1CC#N
- percent Bodipy-positive cells [2]: 26.2% and 6.07%

SMILES: CCOC(=O)C1=C(C)NC(C)=C(C(=O)OC)C1c1cccc([N+](=O)[O-])c1 (configuration not stated) [Nitrendipine]
- percent Bodipy-positive cells: 10.4 ± 3.6%
- percent Bodipy-positive cells [1]: 11.4 ± 0.54%

SMILES: CCOC(=O)C1=C(C)NC(C)=C(C(=O)OC)C1c1cccc([N+](=O)[O-])c1 (configuration not stated)
- percent Bodipy-positive cells [2]: 23.7 ± 3%

SMILES: CC1(C)S[C@@H]2[C@H](N3C(=O)[C@@H](c4ccccc4)NC3(C)C)C(=O)N2[C@H]1C(=O)O [Hetacillin potassium]
- percent Bodipy-positive cells [4]: 4.13 ± 0.86%
- percent Bodipy-positive cells [2]: 15.06 ± 0.09%

SMILES: CN1CCN(c2ccc(OC(F)(F)F)c(Nc3ncc4c(n3)-c3c(c(C(N)=O)nn3CCO)CC4)c2)CC1
- percent Bodipy-positive cells [2]: 61.1 ± 7.1%

SMILES: O=C(CCCCCCCCCCCCC1CCCC1)Nc1ccc(S(=O)(=O)c2ccc(NC(=O)CCCCCCCCCCCCC3CCCC3)cc2)cc1 [Chaulmosulfone]
- percent Bodipy-positive cells [2]: 42.9 ± 9.3%

SMILES: C=C1C[C@H](O)[C@H](C/C=C\CCCC(=O)O)[C@H]1/C=C/C(=O)CCCCC [11-deoxy-11-methylene-15-keto Prostaglandin D2]
- percent Bodipy-positive cells (library stock concentration: 1 mM): 7.4 ± 0.48%

SMILES: COc1cc(C[C@H]2C(=O)OC[C@@H]2Cc2ccc(OC)c(OC)c2)ccc1O [Arctigenin]
- percent Bodipy-positive cells [2]: 8.71 ± 1.1%

SMILES: NS(=O)(=O)c1cc2c(cc1C(F)(F)F)NC(Cc1ccccc1)NS2(=O)=O (configuration not stated) [Bendroflumethiazide]
- percent Bodipy-positive cells: 13.7 ± 1.1%
- percent Bodipy-positive cells [4]: 17.8 ± 3.2%

SMILES: NS(=O)(=O)c1cc2c(cc1C(F)(F)F)NC(Cc1ccccc1)NS2(=O)=O (configuration not stated) [Bendrofluazide]
- percent Bodipy-positive cells [2]: 28 ± 2.7%

SMILES: NS(=O)(=O)c1cc2c(cc1C(F)(F)F)NC(Cc1ccccc1)NS2(=O)=O (configuration not stated) [Bendrofumethiazide]
- percent Bodipy-positive cells [2]: 58.7 ± 31%

SMILES: CNC(=O)c1ccccc1Sc1ccc2c(/C=C/c3ccccn3)n[nH]c2c1
- percent Bodipy-positive cells [5]: 12.4 ± 2.4%
- percent Bodipy-positive cells [6]: 15.1 ± 1.6%
- percent Bodipy-positive cells [2]: 33.2 ± 16%

SMILES: CNC(=O)c1ccccc1Sc1ccc2c(/C=C/c3ccccn3)n[nH]c2c1 [Axitinib]
- percent Bodipy-positive cells [7]: 18.7 ± 8.1%
- percent Bodipy-positive cells [5]: 15.4 ± 5.3%
- percent Bodipy-positive cells [6]: 15.5 ± 1.1%
- percent Bodipy-positive cells [1]: 14.6 ± 5.1%

SMILES: Cc1ccc(NC(=O)Nc2cc(C(F)(F)F)ccc2F)cc1Nc1ccc2c(c1)NC(=O)/C2=C\c1ccc[nH]1
- percent Bodipy-positive cells [7]: 15.2 ± 2.8%
- percent Bodipy-positive cells [5]: 32 ± 3.6%

SMILES: CC(C)(NS(=O)(=O)c1ccc(Oc2ccc(F)cc2)cc1)C(=O)NO
- percent Bodipy-positive cells [2]: 51.4 ± 0.34%

SMILES: CC(CN1c2ccccc2Sc2ccccc21)N(C)C (configuration not stated) [Phenergan]
- percent Bodipy-positive cells [2]: 79.3 ± 9.7%

SMILES: CC(CN1c2ccccc2Sc2ccccc21)N(C)C (configuration not stated) [Promethazine HCl]
- percent Bodipy-positive cells [1]: 27.7 ± 6.4%
- percent Bodipy-positive cells (library stock concentration: 7 mM): 48.9 ± 3.1%
- percent Bodipy-positive cells [2]: 80.14 ± 0.38%

SMILES: CC(CN1c2ccccc2Sc2ccccc21)N(C)C (configuration not stated) [Promethazine hydrochloride]
- percent Bodipy-positive cells: 54.6 ± 6.8%
- percent Bodipy-positive cells (library stock concentration: 6.2 mM): 66 ± 1.1%
- percent Bodipy-positive cells [2]: 72.7 ± 3.2%

SMILES: CCOc1cc(N2CCC(O)CC2)ccc1Nc1ncc2c(n1)N(C)c1ccccc1C(=O)N2C
- percent Bodipy-positive cells [7]: 10.3 ± 5.8%
- percent Bodipy-positive cells [5]: 7.65 ± 3.6%
- percent Bodipy-positive cells [6]: 12 ± 4.1%
- percent Bodipy-positive cells [1]: 43.3 ± 8.6%

SMILES: S=C=Nc1cccc(NC(=S)NCCCCNC(=S)Nc2cccc(N=C=S)c2)c1
- percent Bodipy-positive cells [1]: 9.7 ± 0.91%
- percent Bodipy-positive cells [2]: 14.5 ± 2.3%

SMILES: CC(C)[C@H](CO)Nc1nc(Nc2cc(N)cc(Cl)c2)c2ncn(C(C)C)c2n1 [Aminopurvalanol A]
- percent Bodipy-positive cells [1]: 5.12 ± 0.26%
- percent Bodipy-positive cells [2]: 12 ± 1%

SMILES: O=C(c1ccc(OCCN2CCCCC2)cc1)c1c(-c2ccc(O)cc2)sc2cc(O)ccc12 [Raloxifene hydrochloride]
- percent Bodipy-positive cells: 22 ± 7.6%

SMILES: O=C(c1ccc(OCCN2CCCCC2)cc1)c1c(-c2ccc(O)cc2)sc2cc(O)ccc12
- percent Bodipy-positive cells [2]: 88.8 ± 3%

SMILES: O=C(c1ccc(OCCN2CCCCC2)cc1)c1c(-c2ccc(O)cc2)sc2cc(O)ccc12 [Raloxifene HCl]
- percent Bodipy-positive cells [1]: 14.3 ± 6.3%
- percent Bodipy-positive cells [2]: 61.9 ± 0.96%
